In this assay the target is T1, Mouse Vasa Homolog (mouse (endogenous in testis germ cells)) (UniProt Q61496).
T1 sequence: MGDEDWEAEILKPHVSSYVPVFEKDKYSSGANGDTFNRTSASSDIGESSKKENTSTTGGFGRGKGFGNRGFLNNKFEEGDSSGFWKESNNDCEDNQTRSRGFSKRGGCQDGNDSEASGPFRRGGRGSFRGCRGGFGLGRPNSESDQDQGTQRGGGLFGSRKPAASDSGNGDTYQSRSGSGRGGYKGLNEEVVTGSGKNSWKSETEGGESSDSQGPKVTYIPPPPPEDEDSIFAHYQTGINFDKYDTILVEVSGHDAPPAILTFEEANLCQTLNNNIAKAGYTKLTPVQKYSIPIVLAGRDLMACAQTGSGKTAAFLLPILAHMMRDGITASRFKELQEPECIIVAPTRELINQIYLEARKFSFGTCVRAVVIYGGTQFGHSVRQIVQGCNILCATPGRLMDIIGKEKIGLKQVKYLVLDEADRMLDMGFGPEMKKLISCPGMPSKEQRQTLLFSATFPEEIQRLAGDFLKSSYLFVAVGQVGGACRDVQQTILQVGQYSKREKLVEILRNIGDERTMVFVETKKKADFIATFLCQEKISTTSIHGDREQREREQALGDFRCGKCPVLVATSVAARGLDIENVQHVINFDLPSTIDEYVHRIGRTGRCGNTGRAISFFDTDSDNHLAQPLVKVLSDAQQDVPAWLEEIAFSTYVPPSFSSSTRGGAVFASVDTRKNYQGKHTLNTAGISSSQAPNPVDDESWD
The assay is described as follows: co-IP; IP with anti-MVH (Abcam) on protein A Sepharose from cytoplasmic extract of P40 testis germ cells, overnight at 4°C, beads washed 3 times; Western blot with anti-MVH, anti-HuR and anti-AUF1; control rabbit IgG. A general note: Immunoblotting shows a protein as a band on a membrane.

Sequences of proteins named here, by UniProt entry; tags and fusion partners are left off.
UniProt Q60668: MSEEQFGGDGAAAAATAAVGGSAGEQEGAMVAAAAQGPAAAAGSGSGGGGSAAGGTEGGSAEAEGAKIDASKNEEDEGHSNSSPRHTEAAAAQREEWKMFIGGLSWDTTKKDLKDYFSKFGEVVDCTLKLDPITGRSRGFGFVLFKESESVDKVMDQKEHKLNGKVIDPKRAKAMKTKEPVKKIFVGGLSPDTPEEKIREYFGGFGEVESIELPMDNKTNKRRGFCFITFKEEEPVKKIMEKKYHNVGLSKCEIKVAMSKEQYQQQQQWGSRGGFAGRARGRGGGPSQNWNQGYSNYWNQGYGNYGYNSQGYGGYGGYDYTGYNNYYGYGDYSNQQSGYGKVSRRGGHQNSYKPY

No constants are given. Whether binding was seen depends on the method and setting. Binding seen in cells or lysates may run through a third protein.

Consider AUF1 (from UniProt Q60668 1-355), for which the binding entry was “no binding”.
